Common to all, as to settings: stereoisomer not certain
The target of one test is T1, OR5AN1 (Homo sapiens) (UniProt Q8NGI8).
T1 sequence (whole entry): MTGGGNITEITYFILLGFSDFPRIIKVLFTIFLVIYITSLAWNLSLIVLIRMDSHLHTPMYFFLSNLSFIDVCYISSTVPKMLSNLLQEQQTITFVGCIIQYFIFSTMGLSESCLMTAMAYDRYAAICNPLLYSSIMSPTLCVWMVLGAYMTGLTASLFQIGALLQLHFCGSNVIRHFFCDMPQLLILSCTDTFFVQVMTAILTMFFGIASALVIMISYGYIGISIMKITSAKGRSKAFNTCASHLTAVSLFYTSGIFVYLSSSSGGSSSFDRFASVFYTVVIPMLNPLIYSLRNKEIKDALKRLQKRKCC
The essentials: (§1)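 Assay methods differ from source to source, frequently being transient luciferase assays in mammalian cell lines. For each receptor–molecule pair, the label responsive (active) applies when the original authors judged the measured signal statistically different from baseline, and non-responsive (inactive) applies otherwise.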

Amino acid sequences for entries named in this document (tags omitted). A change or cut given only in a name is not applied to a line headed by its entry.
UniProt Q8NH89: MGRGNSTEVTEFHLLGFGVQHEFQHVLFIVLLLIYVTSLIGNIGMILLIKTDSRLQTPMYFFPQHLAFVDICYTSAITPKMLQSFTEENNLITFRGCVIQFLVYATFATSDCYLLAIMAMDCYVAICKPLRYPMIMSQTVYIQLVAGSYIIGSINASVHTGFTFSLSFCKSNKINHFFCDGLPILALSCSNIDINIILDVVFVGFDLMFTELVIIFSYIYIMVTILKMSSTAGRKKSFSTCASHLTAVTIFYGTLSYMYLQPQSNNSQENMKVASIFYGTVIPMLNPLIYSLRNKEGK
UniProt Q8NGF4: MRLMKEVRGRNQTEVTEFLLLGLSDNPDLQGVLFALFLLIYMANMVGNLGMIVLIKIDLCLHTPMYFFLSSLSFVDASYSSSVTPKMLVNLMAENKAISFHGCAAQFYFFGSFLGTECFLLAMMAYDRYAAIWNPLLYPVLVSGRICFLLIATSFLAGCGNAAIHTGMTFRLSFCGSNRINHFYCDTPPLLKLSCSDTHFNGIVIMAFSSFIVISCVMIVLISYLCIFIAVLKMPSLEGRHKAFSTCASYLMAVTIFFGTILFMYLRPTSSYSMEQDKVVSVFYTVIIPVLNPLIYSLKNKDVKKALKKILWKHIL
UniProt Q8NGL1: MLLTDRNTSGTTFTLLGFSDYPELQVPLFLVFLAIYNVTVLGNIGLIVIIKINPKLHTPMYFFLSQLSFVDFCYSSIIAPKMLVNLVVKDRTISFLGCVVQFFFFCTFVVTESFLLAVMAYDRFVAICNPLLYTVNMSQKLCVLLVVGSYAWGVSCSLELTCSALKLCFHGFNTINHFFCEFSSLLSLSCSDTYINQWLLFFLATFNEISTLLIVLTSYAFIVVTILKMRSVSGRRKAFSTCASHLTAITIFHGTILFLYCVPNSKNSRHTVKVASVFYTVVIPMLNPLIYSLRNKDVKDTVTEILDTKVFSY

A further test has as its target T2, OR5AR1 (Homo sapiens) (UniProt Q8NGP9).
T2 sequence (whole entry): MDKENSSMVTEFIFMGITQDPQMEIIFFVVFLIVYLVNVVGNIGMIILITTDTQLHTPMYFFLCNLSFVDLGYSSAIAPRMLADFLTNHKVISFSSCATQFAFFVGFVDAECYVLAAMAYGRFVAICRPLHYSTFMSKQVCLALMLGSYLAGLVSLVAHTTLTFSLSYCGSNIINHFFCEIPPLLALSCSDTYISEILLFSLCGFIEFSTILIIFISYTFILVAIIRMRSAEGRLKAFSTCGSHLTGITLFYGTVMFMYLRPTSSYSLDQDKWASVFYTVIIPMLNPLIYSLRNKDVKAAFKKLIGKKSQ
The method, boiled down:
as §1

Another test deals with T3, OR5AS1 (Homo sapiens) (UniProt Q8N127).
T3 sequence (whole entry): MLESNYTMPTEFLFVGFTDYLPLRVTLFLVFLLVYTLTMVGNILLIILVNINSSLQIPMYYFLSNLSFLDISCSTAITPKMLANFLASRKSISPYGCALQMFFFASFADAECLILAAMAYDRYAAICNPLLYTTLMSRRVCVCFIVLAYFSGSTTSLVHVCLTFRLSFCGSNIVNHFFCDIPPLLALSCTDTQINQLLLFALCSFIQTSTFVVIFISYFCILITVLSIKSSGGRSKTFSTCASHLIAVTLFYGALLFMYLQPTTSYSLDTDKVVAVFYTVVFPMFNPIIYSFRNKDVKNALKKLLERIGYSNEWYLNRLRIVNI
The method, boiled down:
as §1

The next test addresses T4, OR5AU1 (Homo sapiens) (UniProt Q8NGC0).
T4 sequence (whole entry): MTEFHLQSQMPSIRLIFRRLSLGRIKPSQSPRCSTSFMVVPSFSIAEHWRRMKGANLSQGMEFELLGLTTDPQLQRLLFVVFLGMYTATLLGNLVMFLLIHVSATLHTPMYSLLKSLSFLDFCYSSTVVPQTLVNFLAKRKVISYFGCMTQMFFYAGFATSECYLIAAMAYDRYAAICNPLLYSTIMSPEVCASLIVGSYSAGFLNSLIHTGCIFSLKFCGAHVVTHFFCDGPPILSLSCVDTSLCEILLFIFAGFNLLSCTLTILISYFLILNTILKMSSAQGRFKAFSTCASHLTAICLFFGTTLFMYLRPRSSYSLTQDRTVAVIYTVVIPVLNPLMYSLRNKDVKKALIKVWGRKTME
The method, boiled down:
as §1

The target in another test is T5, OR5B17 (Homo sapiens) (UniProt Q8NGF7).
T5 sequence (whole entry): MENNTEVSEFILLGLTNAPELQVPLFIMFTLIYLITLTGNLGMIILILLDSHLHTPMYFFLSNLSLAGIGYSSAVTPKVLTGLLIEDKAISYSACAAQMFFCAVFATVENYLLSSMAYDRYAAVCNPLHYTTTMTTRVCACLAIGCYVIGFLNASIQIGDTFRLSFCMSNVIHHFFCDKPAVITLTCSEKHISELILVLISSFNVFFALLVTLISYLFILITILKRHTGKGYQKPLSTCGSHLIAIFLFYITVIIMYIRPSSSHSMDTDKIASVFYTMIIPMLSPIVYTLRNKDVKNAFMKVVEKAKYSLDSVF
The essentials: as §1

A further test deals with T6, OR5B2.
T6 sequence (whole entry): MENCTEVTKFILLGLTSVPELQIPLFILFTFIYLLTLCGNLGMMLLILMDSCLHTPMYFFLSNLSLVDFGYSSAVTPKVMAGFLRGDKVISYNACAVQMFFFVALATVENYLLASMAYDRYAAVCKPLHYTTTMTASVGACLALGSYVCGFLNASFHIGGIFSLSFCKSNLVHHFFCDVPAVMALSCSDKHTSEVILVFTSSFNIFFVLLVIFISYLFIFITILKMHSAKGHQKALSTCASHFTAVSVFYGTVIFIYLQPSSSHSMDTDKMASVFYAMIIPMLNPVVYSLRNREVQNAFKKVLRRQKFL
The essentials:
as §1

The target of the next test is T7, OR5B3 (Homo sapiens) (UniProt Q8NH48).
T7 sequence (whole entry): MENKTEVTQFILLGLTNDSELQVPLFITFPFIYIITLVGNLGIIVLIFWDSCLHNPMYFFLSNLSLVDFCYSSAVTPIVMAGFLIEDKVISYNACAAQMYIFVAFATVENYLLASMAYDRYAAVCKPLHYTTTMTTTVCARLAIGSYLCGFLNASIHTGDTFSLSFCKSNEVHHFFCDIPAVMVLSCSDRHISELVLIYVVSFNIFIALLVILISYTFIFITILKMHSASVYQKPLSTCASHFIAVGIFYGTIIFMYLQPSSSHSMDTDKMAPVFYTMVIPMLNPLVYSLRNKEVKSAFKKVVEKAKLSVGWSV
The method, boiled down:
as §1

A further test relates to T8, OR5BC.
T8 sequence (whole entry): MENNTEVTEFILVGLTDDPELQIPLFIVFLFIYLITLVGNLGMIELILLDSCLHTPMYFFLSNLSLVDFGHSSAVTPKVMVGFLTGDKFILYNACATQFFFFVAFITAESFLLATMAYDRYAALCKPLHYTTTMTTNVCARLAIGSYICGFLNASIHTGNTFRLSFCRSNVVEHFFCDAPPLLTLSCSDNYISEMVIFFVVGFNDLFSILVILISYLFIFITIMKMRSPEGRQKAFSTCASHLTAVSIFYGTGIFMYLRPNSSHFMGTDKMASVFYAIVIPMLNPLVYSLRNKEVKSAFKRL
The essentials:
as §1

In a further test the test system is T9, OR5BL.
T9 sequence (whole entry): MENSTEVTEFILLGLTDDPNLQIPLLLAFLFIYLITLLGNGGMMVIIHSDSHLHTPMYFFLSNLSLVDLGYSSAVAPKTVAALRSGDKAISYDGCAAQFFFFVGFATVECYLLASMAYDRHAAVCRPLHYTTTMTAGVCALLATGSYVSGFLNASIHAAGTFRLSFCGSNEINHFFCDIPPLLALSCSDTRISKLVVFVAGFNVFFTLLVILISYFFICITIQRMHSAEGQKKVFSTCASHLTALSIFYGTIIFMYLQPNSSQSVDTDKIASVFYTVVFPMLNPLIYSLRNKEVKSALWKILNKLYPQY
The method, boiled down:
as §1

A further test has as its target T10, OR5C1 (Homo sapiens) (UniProt Q8NGR4).
T10 sequence (whole entry): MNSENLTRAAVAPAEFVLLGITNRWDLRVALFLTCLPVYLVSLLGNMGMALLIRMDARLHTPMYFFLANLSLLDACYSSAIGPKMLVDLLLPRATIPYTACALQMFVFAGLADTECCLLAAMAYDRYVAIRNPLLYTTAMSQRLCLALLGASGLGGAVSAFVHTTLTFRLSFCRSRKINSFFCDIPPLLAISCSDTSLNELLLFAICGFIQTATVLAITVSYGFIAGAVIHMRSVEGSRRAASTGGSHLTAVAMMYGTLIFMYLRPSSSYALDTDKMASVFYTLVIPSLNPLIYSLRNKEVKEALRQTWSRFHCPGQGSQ
The essentials: as §1

A further test relates to T11, OR5DD.
T11 sequence (whole entry): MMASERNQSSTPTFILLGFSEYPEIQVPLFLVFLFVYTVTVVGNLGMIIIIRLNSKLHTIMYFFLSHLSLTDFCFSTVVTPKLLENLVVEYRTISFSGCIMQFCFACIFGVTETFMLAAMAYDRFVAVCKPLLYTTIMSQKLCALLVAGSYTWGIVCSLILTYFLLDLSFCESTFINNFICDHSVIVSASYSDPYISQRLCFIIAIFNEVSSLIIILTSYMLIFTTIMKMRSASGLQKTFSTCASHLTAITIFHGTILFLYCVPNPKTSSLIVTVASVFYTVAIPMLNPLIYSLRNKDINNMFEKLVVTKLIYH
The method, boiled down: as §1

The next test concerns T12, OR5DE.
T12 sequence (whole entry): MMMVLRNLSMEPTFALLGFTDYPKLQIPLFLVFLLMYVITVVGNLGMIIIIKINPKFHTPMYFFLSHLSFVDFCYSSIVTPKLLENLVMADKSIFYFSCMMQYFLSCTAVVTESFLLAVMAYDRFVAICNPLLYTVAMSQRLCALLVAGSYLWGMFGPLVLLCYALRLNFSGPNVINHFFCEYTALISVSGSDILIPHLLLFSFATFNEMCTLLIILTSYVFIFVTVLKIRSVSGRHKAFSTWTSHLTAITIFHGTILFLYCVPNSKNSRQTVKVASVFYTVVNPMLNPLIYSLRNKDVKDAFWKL
The method, boiled down: as §1

A further test deals with OR5AK3P (Homo sapiens) (UniProt Q8NH89). The essentials: as §1
Another test concerns the target OR5AP2 (Homo sapiens) (UniProt Q8NGF4). The method, boiled down: as §1
The target in the next test is OR5B12 (Homo sapiens) (UniProt Q96R08). The essentials:
as §1

The target in a further test is OR5B2 (Homo sapiens) (UniProt Q96R09). The essentials:
as §1

Another test has as its target OR5B21 (Homo sapiens) (UniProt A6NL26). The method, boiled down: as §1
A further test deals with OR5D13 (Homo sapiens) (UniProt Q8NGL4). The method, boiled down: as §1
A further test deals with OR5D14 (Homo sapiens) (UniProt Q8NGL3). The essentials:
as §1

Another test deals with OR5D18 (Homo sapiens) (UniProt Q8NGL1). The essentials: as §1

The entries are a selection whose mix differs from that of the whole data set. The calls were merged from several studies; some rest on single wells. The list shows a part of the results. This is one part of the list.

In the case of `CCCC(=O)O`, the “odorant receptor agonist call” value with OR5AN1 (Homo sapiens), in the test with OR5AR1 (Homo sapiens), in the test with OR5AU1 (Homo sapiens), with OR5B17 (Homo sapiens), with OR5B2 and with OR5B3 (Homo sapiens) was “inactive” each time. Moreover, the “odorant receptor agonist call” value in the test on OR5BC, with OR5BL, with OR5C1 (Homo sapiens) and in the test on OR5DD was “inactive” in each case. For the same compound, the “odorant receptor agonist call” value with OR5AS1 (Homo sapiens) and in the test with OR5DE was “active” each time.

For `CCCCCC(=O)O`, the “odorant receptor agonist call” value in the test with OR5AN1 (Homo sapiens), with OR5AR1 (Homo sapiens), with OR5AS1 (Homo sapiens), with OR5AU1 (Homo sapiens), with OR5B17 (Homo sapiens) and in the test with OR5B2 was “inactive” throughout. The “odorant receptor agonist call” value in the test with OR5B3 (Homo sapiens), in the test on OR5BC, in the test on OR5BL, with OR5C1 (Homo sapiens), with OR5DD and in the test on OR5DE was “inactive” each time.

`CC12C=CCC1C1CCC3CC(=O)CCC3(C)C1CC2` (configuration not stated): the “odorant receptor agonist call” value with OR5AK3P (Homo sapiens), in the test with OR5AN1 (Homo sapiens), with OR5AP2 (Homo sapiens), with OR5AU1 (Homo sapiens), with OR5B12 (Homo sapiens) and in the test with OR5B2 (Homo sapiens) was “inactive” throughout. Besides, the “odorant receptor agonist call” value with OR5B21 (Homo sapiens), with OR5B2, with OR5BC, with OR5BL, with OR5C1 (Homo sapiens) and in the test with OR5D13 (Homo sapiens) was “inactive” each time. In addition, the “odorant receptor agonist call” value in the test with OR5D14 (Homo sapiens) and with OR5D18 (Homo sapiens) was “inactive” throughout. Moreover, the “odorant receptor agonist call” value with OR5AS1 (Homo sapiens), in the test on OR5DD and in the test on OR5DE was “active” throughout.

On to `CC(C)(C)c1ccc(CCC=O)cc1`, for which the “odorant receptor agonist call” value with OR5AN1 (Homo sapiens), with OR5AR1 (Homo sapiens), with OR5AS1 (Homo sapiens), with OR5AU1 (Homo sapiens), in the test with OR5B17 (Homo sapiens) and with OR5B2 was “inactive” throughout. In addition, the “odorant receptor agonist call” value in the test with OR5B3 (Homo sapiens), in the test with OR5BC, with OR5BL, in the test with OR5C1 (Homo sapiens), in the test on OR5DD and in the test on OR5DE was “inactive” each time.

With `CC(C)CCC(=O)O`, the “odorant receptor agonist call” value with OR5AN1 (Homo sapiens), in the test with OR5AR1 (Homo sapiens), with OR5AS1 (Homo sapiens), with OR5AU1 (Homo sapiens), with OR5B17 (Homo sapiens) and in the test on OR5B2 was “inactive” in each case. For the same compound, the “odorant receptor agonist call” value in the test with OR5B3 (Homo sapiens), in the test on OR5BC, in the test with OR5BL, with OR5C1 (Homo sapiens), in the test on OR5DD and in the test on OR5DE was “inactive” in each case.

As for `CCC1(O)C2(C)CCC(C2)C1(C)C` (configuration not stated), the “odorant receptor agonist call” value with OR5AN1 (Homo sapiens), with OR5AR1 (Homo sapiens), with OR5AS1 (Homo sapiens), in the test with OR5AU1 (Homo sapiens), with OR5B17 (Homo sapiens) and in the test with OR5B2 was “inactive” throughout. In addition, the “odorant receptor agonist call” value with OR5B3 (Homo sapiens), with OR5BC, in the test with OR5BL, with OR5C1 (Homo sapiens), with OR5DD and in the test on OR5DE was “inactive” in each case.
